This is an account of results in patent US20060122107A1 (Monash University, priority 2002, published 2006).

A short description of the data set: general procedure: Fmoc solid-phase peptide synthesis. The note with it: whole synthesis.

Some peptides are written in HELM: one residue between dots, names in brackets for other building blocks, links after the first $.

As to Ser Ile Ile Asn Phe β^c3Glu Lys Leu, the “final purity (method not given)” value came out at 95%.
To PEPTIDE1{S.I.I.N.F.E.K.L}$$$$V2.0 belongs over 70%; to “PEPTIDE1{S.I.I.[bC3Asn].F.E.K.L}$$$$V2.0”, 86%; to “PEPTIDE1{S.I.[bC3Ile].N.F.E.K.L}$$$$V2.0”, 98%.
For “PEPTIDE1{S.[bC3Ile].I.N.F.E.K.L}$$$$V2.0” the value was over 80%.
For “PEPTIDE1{S.I.I.N.[bC3Phe].E.K.L}$$$$V2.0” the value was 85%; for “PEPTIDE1{S.I.I.N.F.E.K.[bC3Leu]}$$$$V2.0”, over 80%.
Take “PEPTIDE1{[bC3Ser].I.I.N.F.E.K.L}$$$$V2.0”: the “final purity (method not given)” value turned out to be 98%.
